The list shows a part of the results. Further columns of the screen follow, without active or inactive calls. Compounds called inactive in the main read-out are mostly missing here. Potencies come from curve fits of mixed quality, noted in brackets.
Test: qHTS Assay for Lipid Storage Modulators in Drosophila S3 Cells;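 as to cell number change: cells counted by Cell Tracker Red CMTPX staining in the red channel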
Conditions: BODIPY lipid droplet fluorescence, 18-24 h; for cell number change: measured here: cell count max response, cells fed with added oleic acid
Procedure, shortened: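 Laser-scanning cytometry quantifies lipid droplet accumulation (500–530 nm total intensity; droplet/cell object ratio) in oleic acid-fed (400 uM added) Drosophila S3 cells treated with a concentration series. 20 uM Triacsin C defined 100% inhibition.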

[1] = measured here: lipid fluorescence (Fed channel) AC50, cells fed with added oleic acid
[2] = measured here: cell number channel AC50, cells fed with added oleic acid

SMILES	cell number change	AC50 [1]	AC50 [2]
Cc1ccc(N(CC(=O)NC(C)(C)C)C(=O)CCC(=O)Nc2nccs2)c(C)c1	-8.24%	–	–
O=C(Nc1c(C(=O)N2CCOCC2)cnn1-c1ccccc1)c1ccc(F)cc1	-3.23%	0.13 µM [falling, full curve, poor fit]	–
C=CCNC(=O)CN1CCN(Cc2ccc3c(c2)OCO3)CC1	0.777%	0.164 µM [rising, full curve, poor fit]	–
CC(=O)N1CCN(c2ccc(NC(=O)c3ccc(Cl)cc3)cc2)CC1	12.6%	–	–
COc1cc(OC)c(OC)cc1CNC(=O)c1cccc(S(=O)(=O)N2CCc3ccccc3C2)c1	130%	–	5.8 µM [rising, partial curve]
COC(=O)c1ccccc1N1C(=O)C2C(C1=O)C1C=CC2C12CC2 (stereo unspecified)	-123%	–	25.9 µM [falling, partial curve]
Cc1cc(N2CCN(S(=O)(=O)c3ccccc3)CC2)nc2c(C)cccc12	44%	–	35.5 µM [rising, single point]
S=C1NC2(CCCCCC2)N=C1c1ccccc1	-21%	2.59 µM [falling, full curve, poor fit]	–
C=CCN1CC2CC3(COc4cc(C)cc(C)c4)C=CC2(O3)C1=O (stereo unspecified)	61.8%	6.51 µM [falling, single point]	13 µM [rising, partial curve]
CCc1ccccc1Nc1nc(N)nc(COC(=O)CCC(=O)c2ccc(F)cc2)n1	-2.29%	6.51 µM [rising, partial curve, poor fit]	–
CCOC(=O)C1(C/C(C)=N/NC(N)=O)CC(C)OC1=O (stereo unspecified)	61.6%	–	29.1 µM [rising, single point]
COc1ccc(-c2cn(Cc3ccc4c(c3)C(=O)c3ccccc3C4=O)nn2)cc1	3.88%	0.092 µM [rising, full curve]	–
OCCCNc1nccc(-c2cc(Nc3cccc(Cl)c3)ncn2)n1	-45.4%	6.51 µM [falling, partial curve]	5.8 µM [falling, full curve]
COCCCNc1oc(-c2ccccc2Cl)nc1C#N	5.81%	0.0731 µM [rising, full curve]	–
O=C(/C=C/c1ccc(Cl)cc1)N1CCN(c2ncccn2)CC1	37.2%	–	11.6 µM [rising, single point]
CC1C=CCC2C(=O)N(c3ccc(OC(=O)c4ccco4)cc3)C(=O)C12 (stereo unspecified)	0.729%	4.11 µM [falling, single point]	–
Clc1ccc(-c2c[n+](Cc3ccc(Cl)cc3Cl)c3n2CCCCC3)cc1	-57.9%	29.1 µM [falling, single point]	18.4 µM [falling, single point]
Cc1cccn2c(=O)c3cc(C(=O)NCc4ccco4)c(=N)n(C4CCCCC4)c3nc12	21.8%	–	–
COc1ccc(CCn2c(-c3ccco3)nc3ccccc3c2=O)cc1OC	–	0.58 µM [rising, full curve]	0.58 µM [rising, full curve]

SMILES	cell number change	AC50 [1]	AC50 [2]
Cc1ccc(CC(=O)NC2CCN(Cc3ccccc3)CC2)cc1	4.95%	20.6 µM [rising, single point]	–
COc1ccccc1NC(=O)CCc1nc2ccccc2s1	–	6.51 µM [falling, single point]	–
Cc1ccc(-c2nnc(COC(=O)c3cccs3)o2)cc1	-8.01%	2.91 µM [rising, single point]	–
CN(CC(=O)Nc1ccc(Cl)c(C(F)(F)F)c1)C(=O)c1ccc(N2CCOCC2)c([N+](=O)[O-])c1	42.2%	18.4 µM [rising, partial curve]	18.4 µM [rising, single point]
O=C(CN1CCN(C2CCCCC2)CC1)c1c[nH]c2ccccc12	-34.8%	–	10.3 µM [falling, partial curve]
COc1ccc(S(=O)(=O)N2CCC(C(=O)NCC3CCCO3)CC2)cc1OC (stereo unspecified)	-14.5%	–	–
COc1cccc(NC(=O)C/C(C)=N/NC(=O)C2CCCCC2)c1	-21%	–	–
O=C(CSc1nc2c(sc3ccccc32)c(=O)n1CCc1ccccc1)NCc1ccco1	48.6%	0.651 µM [rising, single point]	1.03 µM [rising, full curve, poor fit]
CC(=O)Nc1cccc(NC(=O)C(F)(F)F)c1	-4.46%	3.66 µM [rising, single point]	0.651 µM [falling, single point]
Cc1ccc(S(=O)(=O)N2C(=O)CCC2C(=O)O/N=C(\N)c2ccccc2)cc1 (stereo unspecified)	–	6.51 µM [rising, single point]	–
Cc1ccc(NC(=O)c2c([N+](=O)[O-])cnn2C)cc1C	-5.28%	–	–
Cc1ccc2nc(C)c(C)nc2c1N	–	6.51 µM [rising, single point]	6.51 µM [rising, single point]
Cc1ccc(-n2nnnc2SCn2nnc3ccccc3c2=O)c(C)c1	-32.8%	5.8 µM [falling, partial curve]	2.31 µM [falling, full curve]
CNc1ccc(Br)cc(C(=O)/C=C/c2cccc(Cl)c2Cl)c1=O	-44.1%	5.17 µM [falling, partial curve, poor fit]	29.1 µM [falling, single point]
COc1ccc(Nc2c3c(nc4c(-c5ccccc5)c(C)nn24)CCC3)cc1	-72.2%	29.1 µM [falling, single point]	29.1 µM [falling, single point]
COc1ccc(-n2nc(C(=O)NCc3ccco3)c3c4ccccc4n(C)c3c2=O)cc1Cl	–	0.731 µM [rising, single point]	2.06 µM [rising, partial curve]
Cc1c(CN2CCCCC2)c(O)n(CCO)c(=O)c1C#N	2.42%	2.31 µM [rising, single point]	–
Cc1c(C(=O)NCC2CCCO2)cccc1[N+](=O)[O-] (stereo unspecified)	-40.8%	6.51 µM [rising, single point]	29.1 µM [falling, single point]

Looked up by structure from above:
SMILES	cell number change	AC50 [1]	AC50 [2]
COc1ccccc1NC(=O)CCc1nc2ccccc2s1	–	6.51 µM [falling, single point]	–
O=C(CN1CCN(C2CCCCC2)CC1)c1c[nH]c2ccccc12	-34.8%	–	10.3 µM [falling, partial curve]
